Counter-ions that a name gives are not always drawn. The list shows a part of the results. The calls rarely recur for the same compound in another form.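 Kinases were expressed as nanoluciferase fusions in K562 cells and luminescence was read every 4 h between 2 and 18 h as percent of control, DMSO set to 100% and a positive control to 0%. A time point counts as decreased when the signal drops significantly (2 sigma). The hit call is the authors' own, does not follow from the count of time points alone, and its rule is not shown.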
Assays:
Experiment in all cases: kinase-Nluc reporter destabilization hit call (1 = scored as downregulated) (binary); higher = compound decreases kinase abundance
Details in all cases: K562; 2-18 h
[1] = target: ABL1 (UniProt P00519)
[2] = target: AKT1 (UniProt P31749)
[3] = target: ALK (UniProt Q9UM73)
[4] = target: ARAF (UniProt P10398)
[5] = target: AURKA (UniProt O14965)
[6] = target: AURKB (UniProt Q96GD4)
[7] = target: AURKC (UniProt Q9UQB9)
[8] = target: BLK (UniProt P51451)
[9] = target: BMX (UniProt P51813)
[10] = target: BRAF (UniProt P15056)
[11] = tested on: BRAF_V600E
[12] = target: BTK (UniProt Q06187)
[13] = target: CAMK2A (UniProt Q9UQM7)
[14] = target: CAMK2G (UniProt Q13555)
[15] = target: CDK10 (UniProt Q15131)
[16] = target: CDK2 (UniProt P24941)
[17] = target: CDK3 (UniProt Q00526)
[18] = target: CDK4 (UniProt P11802)
[19] = target: CDK5 (UniProt Q00535)
[20] = target: CDK6 (UniProt Q00534)

The chains behind the UniProt entries cited, without tags or fusion partners. Where a name states a change or a piece, a line headed by the entry shows the natural chain unless it says otherwise.
UniProt P31749: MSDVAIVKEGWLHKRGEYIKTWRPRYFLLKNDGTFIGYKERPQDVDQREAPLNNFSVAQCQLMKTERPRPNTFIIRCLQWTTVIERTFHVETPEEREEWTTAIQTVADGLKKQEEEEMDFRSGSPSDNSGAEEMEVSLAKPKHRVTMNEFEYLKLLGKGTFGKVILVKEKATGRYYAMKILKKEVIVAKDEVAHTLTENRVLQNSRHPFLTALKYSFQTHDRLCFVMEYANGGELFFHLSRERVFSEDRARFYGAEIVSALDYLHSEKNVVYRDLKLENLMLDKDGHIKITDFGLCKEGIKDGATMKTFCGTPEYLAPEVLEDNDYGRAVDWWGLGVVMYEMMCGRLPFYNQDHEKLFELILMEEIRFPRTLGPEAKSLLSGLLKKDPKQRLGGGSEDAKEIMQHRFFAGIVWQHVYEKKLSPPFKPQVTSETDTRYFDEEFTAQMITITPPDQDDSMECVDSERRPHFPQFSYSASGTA
UniProt P10398: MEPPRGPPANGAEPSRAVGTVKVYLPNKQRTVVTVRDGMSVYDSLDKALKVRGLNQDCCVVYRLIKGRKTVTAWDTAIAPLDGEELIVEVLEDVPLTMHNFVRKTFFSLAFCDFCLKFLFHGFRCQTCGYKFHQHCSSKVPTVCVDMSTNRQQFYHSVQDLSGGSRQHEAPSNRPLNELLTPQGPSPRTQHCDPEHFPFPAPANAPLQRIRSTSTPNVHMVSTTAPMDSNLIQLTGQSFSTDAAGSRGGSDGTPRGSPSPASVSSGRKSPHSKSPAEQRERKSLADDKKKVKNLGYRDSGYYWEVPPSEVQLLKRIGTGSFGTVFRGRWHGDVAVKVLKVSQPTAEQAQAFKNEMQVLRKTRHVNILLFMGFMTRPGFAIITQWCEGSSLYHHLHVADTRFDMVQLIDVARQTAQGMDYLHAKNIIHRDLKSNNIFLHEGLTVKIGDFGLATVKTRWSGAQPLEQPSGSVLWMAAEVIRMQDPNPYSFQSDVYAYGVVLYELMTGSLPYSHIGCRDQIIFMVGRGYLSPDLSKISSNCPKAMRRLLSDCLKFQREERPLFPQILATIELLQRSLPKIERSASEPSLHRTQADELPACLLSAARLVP
UniProt O14965: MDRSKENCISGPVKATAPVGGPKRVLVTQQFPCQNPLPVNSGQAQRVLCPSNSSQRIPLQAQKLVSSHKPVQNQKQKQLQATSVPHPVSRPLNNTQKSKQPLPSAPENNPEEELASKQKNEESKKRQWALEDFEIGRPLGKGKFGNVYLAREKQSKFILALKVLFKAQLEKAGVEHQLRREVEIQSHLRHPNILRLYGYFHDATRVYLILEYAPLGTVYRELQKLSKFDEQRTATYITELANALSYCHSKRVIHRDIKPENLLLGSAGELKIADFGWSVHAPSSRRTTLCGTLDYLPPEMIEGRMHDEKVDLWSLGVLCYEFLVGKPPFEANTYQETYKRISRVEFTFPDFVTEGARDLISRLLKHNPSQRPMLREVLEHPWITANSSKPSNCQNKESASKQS
UniProt Q96GD4, whole entry: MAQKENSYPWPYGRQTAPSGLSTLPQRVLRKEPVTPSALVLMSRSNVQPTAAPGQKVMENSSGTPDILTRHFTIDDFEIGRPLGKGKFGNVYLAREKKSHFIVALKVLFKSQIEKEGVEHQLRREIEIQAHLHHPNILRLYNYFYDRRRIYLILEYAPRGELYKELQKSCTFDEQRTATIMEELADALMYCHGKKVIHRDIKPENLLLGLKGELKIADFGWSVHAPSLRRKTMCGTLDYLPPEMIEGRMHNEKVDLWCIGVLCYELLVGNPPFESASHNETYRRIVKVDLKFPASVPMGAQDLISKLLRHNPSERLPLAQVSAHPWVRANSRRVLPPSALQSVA
UniProt Q9UQB9: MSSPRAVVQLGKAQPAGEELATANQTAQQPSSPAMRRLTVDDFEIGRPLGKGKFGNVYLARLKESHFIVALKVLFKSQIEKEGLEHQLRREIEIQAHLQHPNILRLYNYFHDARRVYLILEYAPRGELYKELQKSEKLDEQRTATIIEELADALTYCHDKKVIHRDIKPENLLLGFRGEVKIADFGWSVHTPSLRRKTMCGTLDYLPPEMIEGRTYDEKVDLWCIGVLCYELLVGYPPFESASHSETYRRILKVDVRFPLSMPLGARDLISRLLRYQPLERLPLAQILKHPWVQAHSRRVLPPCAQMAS
UniProt P51813: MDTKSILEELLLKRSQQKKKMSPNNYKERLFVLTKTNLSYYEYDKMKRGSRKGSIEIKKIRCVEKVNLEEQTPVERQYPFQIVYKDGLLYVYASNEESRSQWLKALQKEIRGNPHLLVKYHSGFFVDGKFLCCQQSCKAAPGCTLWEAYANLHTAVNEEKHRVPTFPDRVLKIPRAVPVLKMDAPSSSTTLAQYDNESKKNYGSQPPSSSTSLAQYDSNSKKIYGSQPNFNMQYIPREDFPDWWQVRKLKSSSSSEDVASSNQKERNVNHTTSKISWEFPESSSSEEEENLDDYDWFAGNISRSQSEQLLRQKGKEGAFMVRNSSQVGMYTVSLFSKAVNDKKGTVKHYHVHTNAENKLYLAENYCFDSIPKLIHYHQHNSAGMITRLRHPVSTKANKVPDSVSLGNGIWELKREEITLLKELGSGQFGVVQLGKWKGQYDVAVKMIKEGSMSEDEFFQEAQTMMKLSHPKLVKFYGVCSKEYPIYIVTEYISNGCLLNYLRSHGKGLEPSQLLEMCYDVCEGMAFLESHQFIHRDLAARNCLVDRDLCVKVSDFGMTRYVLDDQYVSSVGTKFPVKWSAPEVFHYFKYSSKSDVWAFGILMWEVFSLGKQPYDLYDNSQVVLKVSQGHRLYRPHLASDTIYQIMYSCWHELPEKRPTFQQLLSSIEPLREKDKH
UniProt Q06187: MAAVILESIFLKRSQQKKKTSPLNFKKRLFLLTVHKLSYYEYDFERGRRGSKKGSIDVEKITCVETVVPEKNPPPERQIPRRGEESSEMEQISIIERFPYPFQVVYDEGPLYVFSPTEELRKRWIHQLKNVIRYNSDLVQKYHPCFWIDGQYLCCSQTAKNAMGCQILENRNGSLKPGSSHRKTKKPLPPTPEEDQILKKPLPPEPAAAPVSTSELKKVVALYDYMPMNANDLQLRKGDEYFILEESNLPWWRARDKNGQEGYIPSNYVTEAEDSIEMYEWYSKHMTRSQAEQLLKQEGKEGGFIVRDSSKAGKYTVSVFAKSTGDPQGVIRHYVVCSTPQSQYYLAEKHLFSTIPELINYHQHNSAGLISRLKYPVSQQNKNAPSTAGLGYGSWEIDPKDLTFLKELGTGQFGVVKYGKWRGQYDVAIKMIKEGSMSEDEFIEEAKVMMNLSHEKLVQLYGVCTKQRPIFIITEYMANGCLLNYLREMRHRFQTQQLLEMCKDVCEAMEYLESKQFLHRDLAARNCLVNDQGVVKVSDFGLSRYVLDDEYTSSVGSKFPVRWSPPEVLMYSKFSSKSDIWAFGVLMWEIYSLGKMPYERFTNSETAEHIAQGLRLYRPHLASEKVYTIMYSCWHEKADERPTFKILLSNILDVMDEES
UniProt Q9UQM7, whole entry: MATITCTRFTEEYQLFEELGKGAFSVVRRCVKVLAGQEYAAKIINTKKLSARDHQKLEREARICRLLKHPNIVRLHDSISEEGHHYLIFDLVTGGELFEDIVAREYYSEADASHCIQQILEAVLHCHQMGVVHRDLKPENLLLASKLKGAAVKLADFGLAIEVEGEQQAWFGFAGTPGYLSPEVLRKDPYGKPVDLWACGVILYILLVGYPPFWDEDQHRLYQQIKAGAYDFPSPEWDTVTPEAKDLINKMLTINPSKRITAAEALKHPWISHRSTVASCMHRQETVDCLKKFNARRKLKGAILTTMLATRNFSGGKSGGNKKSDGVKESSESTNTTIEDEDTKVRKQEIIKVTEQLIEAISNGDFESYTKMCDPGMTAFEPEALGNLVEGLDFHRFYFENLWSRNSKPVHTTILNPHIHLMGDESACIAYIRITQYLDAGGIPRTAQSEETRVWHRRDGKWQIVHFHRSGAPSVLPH
UniProt Q13555: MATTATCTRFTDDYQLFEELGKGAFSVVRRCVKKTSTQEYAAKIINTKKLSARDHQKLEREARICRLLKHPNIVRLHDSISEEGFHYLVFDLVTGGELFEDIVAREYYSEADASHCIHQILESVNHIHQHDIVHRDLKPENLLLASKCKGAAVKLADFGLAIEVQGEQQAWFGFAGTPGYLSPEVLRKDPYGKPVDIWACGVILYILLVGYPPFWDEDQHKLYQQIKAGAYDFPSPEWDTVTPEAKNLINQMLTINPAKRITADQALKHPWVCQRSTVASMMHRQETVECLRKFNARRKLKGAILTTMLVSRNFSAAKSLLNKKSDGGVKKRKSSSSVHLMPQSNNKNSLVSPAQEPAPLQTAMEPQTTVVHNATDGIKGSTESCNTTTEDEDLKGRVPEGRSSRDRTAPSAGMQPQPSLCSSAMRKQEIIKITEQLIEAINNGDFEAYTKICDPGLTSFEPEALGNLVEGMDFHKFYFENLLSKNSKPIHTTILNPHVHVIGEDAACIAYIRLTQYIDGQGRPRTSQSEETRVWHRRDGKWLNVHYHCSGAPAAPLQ
UniProt Q15131: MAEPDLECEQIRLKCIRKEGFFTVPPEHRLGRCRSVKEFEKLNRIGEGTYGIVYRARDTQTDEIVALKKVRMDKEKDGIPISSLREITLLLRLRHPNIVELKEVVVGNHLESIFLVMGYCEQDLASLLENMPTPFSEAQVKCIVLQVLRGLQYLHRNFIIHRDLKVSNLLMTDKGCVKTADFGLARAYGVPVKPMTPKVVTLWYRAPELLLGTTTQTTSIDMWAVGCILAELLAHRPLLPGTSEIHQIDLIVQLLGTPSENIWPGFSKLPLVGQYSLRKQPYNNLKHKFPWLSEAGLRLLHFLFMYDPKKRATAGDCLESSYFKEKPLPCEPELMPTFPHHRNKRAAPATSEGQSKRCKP
UniProt Q00526: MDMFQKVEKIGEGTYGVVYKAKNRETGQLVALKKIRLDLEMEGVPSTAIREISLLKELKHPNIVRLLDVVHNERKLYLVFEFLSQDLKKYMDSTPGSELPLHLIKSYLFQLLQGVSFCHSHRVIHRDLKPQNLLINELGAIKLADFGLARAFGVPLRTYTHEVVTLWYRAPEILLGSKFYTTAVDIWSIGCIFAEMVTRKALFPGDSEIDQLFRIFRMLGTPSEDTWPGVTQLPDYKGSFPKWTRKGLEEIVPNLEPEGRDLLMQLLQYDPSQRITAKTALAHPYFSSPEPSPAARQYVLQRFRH
UniProt P11802: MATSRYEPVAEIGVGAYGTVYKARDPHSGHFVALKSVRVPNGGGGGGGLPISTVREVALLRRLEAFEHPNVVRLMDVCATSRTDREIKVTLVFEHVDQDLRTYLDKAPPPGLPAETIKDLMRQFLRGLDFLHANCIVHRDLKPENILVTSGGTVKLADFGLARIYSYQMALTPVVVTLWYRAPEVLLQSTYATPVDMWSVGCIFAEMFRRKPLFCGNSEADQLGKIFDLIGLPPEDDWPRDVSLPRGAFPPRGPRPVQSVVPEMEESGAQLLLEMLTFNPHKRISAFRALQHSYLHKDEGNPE
UniProt Q00535, whole entry, looked up: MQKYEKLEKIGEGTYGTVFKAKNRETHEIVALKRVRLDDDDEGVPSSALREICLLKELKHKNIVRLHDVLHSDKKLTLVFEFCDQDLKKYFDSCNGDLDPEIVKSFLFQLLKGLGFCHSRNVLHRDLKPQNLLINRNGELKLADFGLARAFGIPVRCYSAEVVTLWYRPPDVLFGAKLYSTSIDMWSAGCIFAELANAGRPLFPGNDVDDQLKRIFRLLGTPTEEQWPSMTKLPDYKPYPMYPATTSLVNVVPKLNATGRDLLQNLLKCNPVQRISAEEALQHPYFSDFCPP
UniProt Q00534, whole entry: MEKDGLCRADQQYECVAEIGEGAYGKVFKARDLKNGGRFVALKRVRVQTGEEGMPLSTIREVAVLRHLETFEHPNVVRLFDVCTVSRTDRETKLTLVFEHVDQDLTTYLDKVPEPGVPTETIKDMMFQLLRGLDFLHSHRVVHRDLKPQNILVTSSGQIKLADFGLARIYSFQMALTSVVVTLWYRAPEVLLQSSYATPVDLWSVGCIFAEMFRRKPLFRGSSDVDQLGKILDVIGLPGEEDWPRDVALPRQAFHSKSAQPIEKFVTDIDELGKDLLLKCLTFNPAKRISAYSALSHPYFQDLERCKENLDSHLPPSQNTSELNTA

| SMILES | kinase-Nluc reporter destabilization hit call [1] | kinase-Nluc reporter destabilization hit call [2] | kinase-Nluc reporter destabilization hit call [3] | kinase-Nluc reporter destabilization hit call [4] | kinase-Nluc reporter destabilization hit call [5] | kinase-Nluc reporter destabilization hit call [6] | kinase-Nluc reporter destabilization hit call [7] | kinase-Nluc reporter destabilization hit call [8] | kinase-Nluc reporter destabilization hit call [9] | kinase-Nluc reporter destabilization hit call [10] | kinase-Nluc reporter destabilization hit call [11] | kinase-Nluc reporter destabilization hit call [12] | kinase-Nluc reporter destabilization hit call [13] | kinase-Nluc reporter destabilization hit call [14] | kinase-Nluc reporter destabilization hit call [15] | kinase-Nluc reporter destabilization hit call [16] | kinase-Nluc reporter destabilization hit call [17] | kinase-Nluc reporter destabilization hit call [18] | kinase-Nluc reporter destabilization hit call [19] | kinase-Nluc reporter destabilization hit call [20] |
| --- | --- | --- | --- | --- | --- | --- | --- | --- | --- | --- | --- | --- | --- | --- | --- | --- | --- | --- | --- | --- |
| Cc1c(-c2c(F)cc(C(N)=O)c3[nH]c4c(c23)CC[C@H](C(C)(C)O)C4)cccc1-n1c(=O)c2cccc(F)c2n(C)c1=O (2.5 µM) | inactive: 0 | inactive: 0 | inactive: 0 | inactive: 0 | inactive: 0 | inactive: 0 | inactive: 0 | inactive: 0 | inactive: 0 | inactive: 0 | inactive: 0 | inactive: 0 | inactive: 0 | inactive: 0 | inactive: 0 | inactive: 0 | inactive: 0 | inactive: 0 | inactive: 0 | inactive: 0 |
| CCCCCCCCCCCCC/C=C/[C@@H](O)[C@@H](N)CO [D-erythro-Sphingosine] (2.5 µM) | inactive: 0 | inactive: 0 | inactive: 0 | inactive: 0 | inactive: 0 | inactive: 0 | inactive: 0 | inactive: 0 | inactive: 0 | inactive: 0 | inactive: 0 | inactive: 0 | inactive: 0 | inactive: 0 | inactive: 0 | inactive: 0 | inactive: 0 | inactive: 0 | inactive: 0 | inactive: 0 |
| Cn1ncc(Cl)c1-c1cc(C(=O)N[C@H](CN)Cc2ccc(F)c(F)c2)oc1Cl [Uprosertib] (10 µM) | inactive: 0 | inactive: 0 | inactive: 0 | inactive: 0 | inactive: 0 | inactive: 0 | inactive: 0 | inactive: 0 | inactive: 0 | inactive: 0 | inactive: 0 | inactive: 0 | inactive: 0 | inactive: 0 | inactive: 0 | inactive: 0 | inactive: 0 | inactive: 0 | inactive: 0 | inactive: 0 |
| CC(C)(C)c1nc(-c2cccc(NS(=O)(=O)c3c(F)cccc3F)c2F)c(-c2ccnc(N)n2)s1 [Dabrafenib] (2.5 µM) | inactive: 0 | inactive: 0 | inactive: 0 | inactive: 0 | inactive: 0 | inactive: 0 | inactive: 0 | inactive: 0 | inactive: 0 | inactive: 0 | inactive: 0 | inactive: 0 | inactive: 0 | inactive: 0 | inactive: 0 | inactive: 0 | inactive: 0 | inactive: 0 | inactive: 0 | inactive: 0 |
| C=C1C(=O)O[C@H]2C[C@H](C)C(/C=C/C(C)=O)=CC[C@H]12 [Xanthatin] (2.5 µM) | inactive: 0 | inactive: 0 | inactive: 0 | inactive: 0 | inactive: 0 | inactive: 0 | inactive: 0 | inactive: 0 | inactive: 0 | inactive: 0 | inactive: 0 | inactive: 0 | inactive: 0 | inactive: 0 | inactive: 0 | inactive: 0 | inactive: 0 | inactive: 0 | inactive: 0 | inactive: 0 |
| c1cncc(CN2CCC(n3ncc4c(N5CCOCC5)nc(-c5ccc6[nH]ccc6c5)nc43)CC2)c1 (10 µM) | active: 1 | inactive: 0 | inactive: 0 | inactive: 0 | inactive: 0 | inactive: 0 | inactive: 0 | inactive: 0 | inactive: 0 | inactive: 0 | inactive: 0 | inactive: 0 | inactive: 0 | inactive: 0 | inactive: 0 | inactive: 0 | inactive: 0 | inactive: 0 | inactive: 0 | inactive: 0 |
| O=Nc1c(-c2c(O)[nH]c3ccc(F)cc23)[nH]c2ccccc12 [5'-Fluoroindirubinoxime] (10 µM) | inactive: 0 | inactive: 0 | inactive: 0 | inactive: 0 | inactive: 0 | inactive: 0 | inactive: 0 | inactive: 0 | inactive: 0 | inactive: 0 | inactive: 0 | inactive: 0 | inactive: 0 | inactive: 0 | inactive: 0 | inactive: 0 | inactive: 0 | inactive: 0 | inactive: 0 | inactive: 0 |
| NC(=O)c1ccc2[nH]ccc2c1 (10 µM) | inactive: 0 | inactive: 0 | inactive: 0 | inactive: 0 | inactive: 0 | inactive: 0 | inactive: 0 | inactive: 0 | inactive: 0 | inactive: 0 | inactive: 0 | inactive: 0 | inactive: 0 | inactive: 0 | inactive: 0 | inactive: 0 | inactive: 0 | inactive: 0 | inactive: 0 | inactive: 0 |
| COc1cc(Nc2ncc(F)c(Nc3ccc4c(n3)NC(=O)C(C)(C)O4)n2)cc(OC)c1OC (10 µM) | inactive: 0 | inactive: 0 | inactive: 0 | inactive: 0 |  | inactive: 0 | inactive: 0 | inactive: 0 |  | inactive: 0 | inactive: 0 | inactive: 0 | inactive: 0 | inactive: 0 | inactive: 0 | active: 1 | inactive: 0 | inactive: 0 | inactive: 0 | inactive: 0 |
| Cc1ccc(C(=O)Nc2ccc(Oc3cc4cnn(C)c4cc3-c3cn[nH]c3)c(F)c2)c(=O)n1-c1ccc(F)cc1 [Merestinib] (2.5 µM) | inactive: 0 | inactive: 0 | inactive: 0 | inactive: 0 | inactive: 0 | inactive: 0 | inactive: 0 | inactive: 0 | inactive: 0 |  | inactive: 0 | inactive: 0 | inactive: 0 | inactive: 0 | inactive: 0 | inactive: 0 | inactive: 0 | inactive: 0 | inactive: 0 | inactive: 0 |
| CN(C)CCCOc1ccc(-c2ccc3ncc4c(c3c2)n(C2CCOCC2)c(=O)n4C)cn1 (2 µM) | inactive: 0 | inactive: 0 | inactive: 0 | inactive: 0 | inactive: 0 | inactive: 0 | inactive: 0 | inactive: 0 | inactive: 0 | inactive: 0 | inactive: 0 | inactive: 0 | inactive: 0 | inactive: 0 | inactive: 0 | inactive: 0 | inactive: 0 | inactive: 0 | inactive: 0 | inactive: 0 |
| Cc1ccc2nc(NCCN)c3ncc(C)n3c2c1 (2.5 µM) | inactive: 0 | inactive: 0 | inactive: 0 | inactive: 0 | inactive: 0 | inactive: 0 | inactive: 0 | inactive: 0 | inactive: 0 | inactive: 0 | inactive: 0 | inactive: 0 | inactive: 0 | inactive: 0 | inactive: 0 |  | inactive: 0 | inactive: 0 | inactive: 0 | inactive: 0 |
| Cn1cnc(Cn2ccc3ccc(CNCc4[nH]c5ccccc5c4[C@H]4NC(=O)c5ccc(O)cc54)cc32)c1 (10 µM) | inactive: 0 | inactive: 0 | inactive: 0 | inactive: 0 | inactive: 0 | inactive: 0 | inactive: 0 | inactive: 0 | inactive: 0 | inactive: 0 | inactive: 0 | inactive: 0 | inactive: 0 | inactive: 0 | inactive: 0 | inactive: 0 | inactive: 0 | inactive: 0 | inactive: 0 | inactive: 0 |
| Cc1ccc(C(=O)Nc2ccc(Oc3cc4cnn(C)c4cc3-c3cn[nH]c3)c(F)c2)c(=O)n1-c1ccc(F)cc1 [Merestinib dihydrochloride] (2.5 µM) | inactive: 0 | inactive: 0 | inactive: 0 | inactive: 0 | inactive: 0 | inactive: 0 | inactive: 0 | inactive: 0 | inactive: 0 |  | inactive: 0 | inactive: 0 | inactive: 0 | inactive: 0 | inactive: 0 | inactive: 0 | inactive: 0 | inactive: 0 | inactive: 0 | inactive: 0 |

Source: the supplement of paper PMC12823440, “Inhibitors supercharge kinase turnover through native proteolytic circuits” (Nature, 2025)
